Test results published in patent publication US11919896B2, “[1,2,4]triazolo[1,5-a]pyridine compound as JAK inhibitor and use thereof” (Zhuhai United Laboratories Co., Ltd., priority 2018, dated 2024).

Assay: Pharmacokinetics (PK) test in mice
Assay type: in vivo, mice (C57BL/6)
Settings: male C57BL/6 mice; iv 2 mg/kg, intragastric 15 mg/kg

N#CC1(C(=O)N2CC3(CCC(c4cccc5nc(NC(=O)C6CC6)nn45)CC3)C2)CC1 [Compound 1-11]
T1/2: 2.99 h
